Data published in PMC4317163.
Results are given in words; binding and its absence hold for the method and conditions named. Binding calls can cover weak binding; strength is not graded here. Tags and fused reporters may be left off the sequences shown. Values belong to the binder of their own block, whether it stands above or below them.

By UniProt entry, the sequences of proteins in these tests, tags left out. Where a name states a change or a piece, a line headed by the entry shows the natural chain unless it says otherwise.
UniProt Q24478: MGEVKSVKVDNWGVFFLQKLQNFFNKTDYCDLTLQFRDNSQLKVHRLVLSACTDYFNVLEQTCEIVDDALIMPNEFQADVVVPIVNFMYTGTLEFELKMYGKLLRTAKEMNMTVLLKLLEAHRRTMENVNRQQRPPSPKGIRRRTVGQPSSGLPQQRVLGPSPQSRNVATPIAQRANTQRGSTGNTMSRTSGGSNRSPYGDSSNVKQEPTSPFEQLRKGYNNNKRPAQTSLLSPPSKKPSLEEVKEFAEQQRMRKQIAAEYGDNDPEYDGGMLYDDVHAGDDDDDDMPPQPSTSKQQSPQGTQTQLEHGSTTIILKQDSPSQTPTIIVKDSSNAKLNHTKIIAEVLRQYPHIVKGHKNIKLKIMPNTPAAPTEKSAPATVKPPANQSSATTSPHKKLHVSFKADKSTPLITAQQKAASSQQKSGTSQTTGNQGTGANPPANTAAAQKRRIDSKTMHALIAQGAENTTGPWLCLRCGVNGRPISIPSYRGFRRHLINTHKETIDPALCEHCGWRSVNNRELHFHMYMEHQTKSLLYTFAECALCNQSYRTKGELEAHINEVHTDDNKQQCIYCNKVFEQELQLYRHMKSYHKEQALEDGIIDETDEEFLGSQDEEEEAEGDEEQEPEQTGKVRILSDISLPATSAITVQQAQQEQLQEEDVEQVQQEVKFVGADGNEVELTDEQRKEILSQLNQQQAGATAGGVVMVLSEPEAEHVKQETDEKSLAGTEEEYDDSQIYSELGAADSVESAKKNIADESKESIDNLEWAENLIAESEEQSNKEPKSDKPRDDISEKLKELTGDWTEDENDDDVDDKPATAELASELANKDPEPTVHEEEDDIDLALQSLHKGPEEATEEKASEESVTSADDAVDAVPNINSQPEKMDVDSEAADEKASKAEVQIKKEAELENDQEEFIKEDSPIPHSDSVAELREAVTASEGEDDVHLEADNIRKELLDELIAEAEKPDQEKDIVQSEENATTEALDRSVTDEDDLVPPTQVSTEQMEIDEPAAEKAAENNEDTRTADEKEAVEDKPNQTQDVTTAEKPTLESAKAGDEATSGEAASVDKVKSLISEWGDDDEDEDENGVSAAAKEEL

Assays:
[1] = biological target: CP190 BTB domain fused to the GAL4 DNA-binding domain (Drosophila) (UniProt Q24478); assay: two-hybrid; yeast strain pJ69-4A, Clontech plasmids; CP190 or its fragments fused to the GAL4 DNA-binding domain, Pita/ZIPIC or their fragments fused to the GAL4 activating domain; growth on media without tryptophan, leucine, histidine and adenine, 30°C
[2] = biological target: CP190 region overlapping the M domain fused to the GAL4 DNA-binding domain (Drosophila); assay: as above

binding [1]: binds
B1: Pita fused to the GAL4 activating domain (protein, UniProt Q95RQ8 1-683)
chain: MAAKLEVREAMLTEKRVCRFCLTEQKLASIFEENPRVKTTANLPLQIMAITAIEVYAGDGMPGHICLECRLLFEHCYRFKQMCKRAETLLRQYPLTGNWPSPLEKPRAPMTMVASKKLLVVPAKTAEPSETPKKLLNTMAKSSSQVIIEDVQVLESAMVTPRTVAGSSPVPRRSHAYELKVDNNQELSMDDVQSMLEDMASELEKEFPDIPQKASPVKPKVLNKSSIRILNKGPAAPVEPRLATPKVKRDDSGNVAIVTEVLDSDLPLDDQDDPTKNAEKVATDVFPCPDCERSFPLQQLLEIHRLNHTRSRSFQCLLCEKSFFSKYDLAKHNFVHTGERPFKCAICSKAFTRKALLHRHERTHTDVPKFICVYCEKPFLSRQEMEKHAERHQKKRPFQCGVCTKSFAFKQGLERHETVHSTNLPFPCQHCERSFSTASKLARHLVAHAGKRAYPCKYCHKSYMLSHHLSRHLRTHTQTSDASFVCSECKVSYSNYNDLLDHALIHATASLKCPMCRKQIEDIDSVESHMDQHKQSERHACEFCDHIFLTQKCLQRHIEDDHVVEMEPYQNEFEDDGEGEGGVDEKEEHLDDFEDMDNVKQEEFVTEYLEDDALYEDHLDDSDESFTPPPPKQRKTNPPKDAQQSVRQTRSRDAQRITQKTGKNEGKPHHKLERNLKNRRSAK

binding [2]: binds
B2: ZIPIC fused to the GAL4 activating domain (protein, UniProt Q9VAB8 1-457)
chain: MNCCICQFSVRVPKDIHTDTVGHPPVLISELVLQCTRGTNYVLTEESSTICKKCCEKLARYHKSIQIARKLRGEILELIHSPYMSKDHKQTSYKEDDLDRETTISKFDGNIEEAQQQDEEEQELESVGTTVTLVGPAGIVEEVAEEEHTFIIKQSEEEDEFHSVDLELDIDNEIIINEEEAHEVEEVAHEIEEVAHEIEEEDLLPHDKQEAQEEDFFKEDTMSDFDEHLDGAIEYIISDGEDQEQDNESSGEYTVNIQCPSCPEKFSSRRAYNVHTKREHFPGYVCDQCGKTLQSYSGFIGHLQNHEPVKQFACPVCPERFSRKFRLKHHMAWHSGETPYQCDVCSKRFVHKVALYKHKMIHDSETKRLECQVCGFKTRTKAHLERHMRSHTGDKPFACPVCNKRFSQMYNMKAHLREHESPGTNRHRRFHCSKCTHTFINEQNYDAHVQRDDCTPV
